In patent US20150218629:

Target: T1, Hel308 Mbu + 5th domain Hel308 Hla (UniProt Q12WZ6)
T1 sequence: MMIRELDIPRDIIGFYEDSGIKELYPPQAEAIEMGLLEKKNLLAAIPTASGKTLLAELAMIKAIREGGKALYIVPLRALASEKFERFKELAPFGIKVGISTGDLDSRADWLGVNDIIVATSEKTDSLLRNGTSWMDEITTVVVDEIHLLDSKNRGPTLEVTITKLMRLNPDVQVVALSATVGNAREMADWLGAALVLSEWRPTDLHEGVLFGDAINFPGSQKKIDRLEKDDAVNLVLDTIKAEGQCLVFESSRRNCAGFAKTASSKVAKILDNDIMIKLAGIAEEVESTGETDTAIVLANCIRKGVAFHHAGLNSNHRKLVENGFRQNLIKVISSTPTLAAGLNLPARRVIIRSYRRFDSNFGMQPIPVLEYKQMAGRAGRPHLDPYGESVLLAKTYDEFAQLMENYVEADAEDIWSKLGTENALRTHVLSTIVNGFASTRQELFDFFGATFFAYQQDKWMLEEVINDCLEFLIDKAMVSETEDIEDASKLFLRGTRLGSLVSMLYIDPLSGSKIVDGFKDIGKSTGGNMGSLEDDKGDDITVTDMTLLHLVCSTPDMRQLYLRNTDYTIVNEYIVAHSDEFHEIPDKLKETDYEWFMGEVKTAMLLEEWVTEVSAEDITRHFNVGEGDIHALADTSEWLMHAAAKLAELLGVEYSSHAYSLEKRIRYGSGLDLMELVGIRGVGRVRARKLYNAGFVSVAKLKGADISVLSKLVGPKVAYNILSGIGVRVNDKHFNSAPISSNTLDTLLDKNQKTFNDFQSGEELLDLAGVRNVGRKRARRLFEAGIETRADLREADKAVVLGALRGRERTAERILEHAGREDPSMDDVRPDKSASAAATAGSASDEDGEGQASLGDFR
Test: binding assay
Details: four 2'-O-methyl uracil at 5' end of SEQ 70; MspA nanopore controlled DNA movement; 100 nM enzyme, 400 mM NaCl, 1 mM ATP, 1 mM MgCl2, +140 mV; purified recombinant protein; protein details: 5th domain of Hel308 Hla fused to C-terminus; label: 3' cholesterol TEG on SEQ 71

Sequence: TTTTTTTTTTTTTTTTTTTTTTTTTTTTTTTTTTTTTTTTTTTTTGCCATCAGATTGTGTTTGTTAGTCGCTGGTTGTTTCTGTTGGTGCTGATATTGCTTTTGATGCCGACCCTAAATTTTTTGCCTGTTTGGTTCGCTTTGAGTCTTCTTCGGTTCCGACTACCCTCCCGACTGCCTATGATGTTTATCCTTTGAATGGTCGCCATGATGGTGGTTATTATACCGTCAAGGACTGTGTGACTATTGACGTCCTTCCCCGTACGCCGGGCAATAACGTTTATGTTGGTTTCATGGTTTGGTCTAACTTTACCGCTACTAAATGCCGCGGATTGGTTTCGCTGAATCAGGTTATTAAAGAGATTATTTGTCTCCAGCCACTTAAGTGAGGTGATTTATGTTTGGTGCTATTGCTGGCGGTATTGCTTCTGCTCTTGCTGGTGGCGCCATGTCTAAATTGTTTGGAGGCGGTCTTTTTCCCCCTTTTTCCCCCTTTTTCCCCCTTTTTCCCCCTTTTTCCCCC / AGCGACTAACAAACACAATCTGATGGCTTTTTTTTTTTTTTTTTTTTTTTTTTTTTT
- binding result: binds

The exact form of at least one protein or probe is not confirmed. Protein sequences can lack the tags named with them.
